For at least one entry, the source does not settle the construct or the ends of the probe. Where cells or extracts were used, other partners may take part. For some of these results: Tags and fusion partners may be left off the protein sequences shown.
Legend:
Experiment in all cases: pull-down
Conditions in all cases: LC-MS/MS of CHO HCP mixture, spectral count >50; PBSMCT with salmon sperm DNA, room temperature; protein in an extract; label: 3' biotin with 18-mer internal spacer; single-stranded DNA
[1] = tested on: Annexin (Cricetulus griseus (CHO))
[2] = target: T1, High mobility group protein B1 (Cricetulus griseus (CHO)) (UniProt P07156)
T1 sequence (looked up, limits assumed): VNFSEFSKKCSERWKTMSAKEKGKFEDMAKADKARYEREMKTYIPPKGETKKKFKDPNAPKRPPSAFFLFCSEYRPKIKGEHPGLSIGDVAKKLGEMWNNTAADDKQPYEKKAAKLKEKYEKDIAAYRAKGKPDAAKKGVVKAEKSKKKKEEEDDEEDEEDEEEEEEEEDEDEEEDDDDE

Protein sequences, listed by entry. Tags and fused reporters are not part of them.
UniProt G3H8V1, entry or part of it: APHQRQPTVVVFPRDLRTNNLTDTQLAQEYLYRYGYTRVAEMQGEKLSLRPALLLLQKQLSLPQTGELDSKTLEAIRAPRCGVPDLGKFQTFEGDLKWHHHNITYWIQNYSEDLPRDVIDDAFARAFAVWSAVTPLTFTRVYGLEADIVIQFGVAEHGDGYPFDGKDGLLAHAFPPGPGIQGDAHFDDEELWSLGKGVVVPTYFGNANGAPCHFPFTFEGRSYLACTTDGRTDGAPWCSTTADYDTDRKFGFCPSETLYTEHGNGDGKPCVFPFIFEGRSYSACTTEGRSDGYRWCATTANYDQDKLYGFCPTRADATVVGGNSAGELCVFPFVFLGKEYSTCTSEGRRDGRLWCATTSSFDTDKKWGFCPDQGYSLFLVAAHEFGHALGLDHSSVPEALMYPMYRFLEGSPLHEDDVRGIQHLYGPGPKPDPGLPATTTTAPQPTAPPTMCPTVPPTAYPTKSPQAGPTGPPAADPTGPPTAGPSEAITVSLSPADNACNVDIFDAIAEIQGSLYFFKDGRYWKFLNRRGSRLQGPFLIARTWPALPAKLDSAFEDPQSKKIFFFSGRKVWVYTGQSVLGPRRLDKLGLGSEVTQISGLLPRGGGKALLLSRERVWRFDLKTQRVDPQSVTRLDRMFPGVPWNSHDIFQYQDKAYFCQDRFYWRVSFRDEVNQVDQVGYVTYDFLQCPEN
UniProt A0A8C2QPD9, entry or part of it: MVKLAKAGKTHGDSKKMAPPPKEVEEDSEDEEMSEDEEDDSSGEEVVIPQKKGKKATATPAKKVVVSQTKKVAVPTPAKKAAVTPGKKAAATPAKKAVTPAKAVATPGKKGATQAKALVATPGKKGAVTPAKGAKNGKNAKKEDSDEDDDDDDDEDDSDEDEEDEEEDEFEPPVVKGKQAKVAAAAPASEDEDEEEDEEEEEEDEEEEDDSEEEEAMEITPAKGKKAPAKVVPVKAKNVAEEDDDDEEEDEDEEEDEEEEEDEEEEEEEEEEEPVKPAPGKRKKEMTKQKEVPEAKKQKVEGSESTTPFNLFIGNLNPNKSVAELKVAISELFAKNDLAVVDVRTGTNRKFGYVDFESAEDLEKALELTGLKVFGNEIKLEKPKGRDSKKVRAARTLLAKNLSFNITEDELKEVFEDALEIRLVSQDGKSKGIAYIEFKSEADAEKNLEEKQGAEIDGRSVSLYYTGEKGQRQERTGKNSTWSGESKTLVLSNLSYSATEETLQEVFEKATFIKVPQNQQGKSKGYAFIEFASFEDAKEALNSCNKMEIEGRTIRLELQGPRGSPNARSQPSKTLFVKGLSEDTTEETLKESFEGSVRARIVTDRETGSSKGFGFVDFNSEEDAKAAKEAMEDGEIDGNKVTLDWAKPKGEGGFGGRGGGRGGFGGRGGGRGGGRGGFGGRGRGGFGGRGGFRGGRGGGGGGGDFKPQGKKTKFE
UniProt A0A9J7G412, entry or part of it: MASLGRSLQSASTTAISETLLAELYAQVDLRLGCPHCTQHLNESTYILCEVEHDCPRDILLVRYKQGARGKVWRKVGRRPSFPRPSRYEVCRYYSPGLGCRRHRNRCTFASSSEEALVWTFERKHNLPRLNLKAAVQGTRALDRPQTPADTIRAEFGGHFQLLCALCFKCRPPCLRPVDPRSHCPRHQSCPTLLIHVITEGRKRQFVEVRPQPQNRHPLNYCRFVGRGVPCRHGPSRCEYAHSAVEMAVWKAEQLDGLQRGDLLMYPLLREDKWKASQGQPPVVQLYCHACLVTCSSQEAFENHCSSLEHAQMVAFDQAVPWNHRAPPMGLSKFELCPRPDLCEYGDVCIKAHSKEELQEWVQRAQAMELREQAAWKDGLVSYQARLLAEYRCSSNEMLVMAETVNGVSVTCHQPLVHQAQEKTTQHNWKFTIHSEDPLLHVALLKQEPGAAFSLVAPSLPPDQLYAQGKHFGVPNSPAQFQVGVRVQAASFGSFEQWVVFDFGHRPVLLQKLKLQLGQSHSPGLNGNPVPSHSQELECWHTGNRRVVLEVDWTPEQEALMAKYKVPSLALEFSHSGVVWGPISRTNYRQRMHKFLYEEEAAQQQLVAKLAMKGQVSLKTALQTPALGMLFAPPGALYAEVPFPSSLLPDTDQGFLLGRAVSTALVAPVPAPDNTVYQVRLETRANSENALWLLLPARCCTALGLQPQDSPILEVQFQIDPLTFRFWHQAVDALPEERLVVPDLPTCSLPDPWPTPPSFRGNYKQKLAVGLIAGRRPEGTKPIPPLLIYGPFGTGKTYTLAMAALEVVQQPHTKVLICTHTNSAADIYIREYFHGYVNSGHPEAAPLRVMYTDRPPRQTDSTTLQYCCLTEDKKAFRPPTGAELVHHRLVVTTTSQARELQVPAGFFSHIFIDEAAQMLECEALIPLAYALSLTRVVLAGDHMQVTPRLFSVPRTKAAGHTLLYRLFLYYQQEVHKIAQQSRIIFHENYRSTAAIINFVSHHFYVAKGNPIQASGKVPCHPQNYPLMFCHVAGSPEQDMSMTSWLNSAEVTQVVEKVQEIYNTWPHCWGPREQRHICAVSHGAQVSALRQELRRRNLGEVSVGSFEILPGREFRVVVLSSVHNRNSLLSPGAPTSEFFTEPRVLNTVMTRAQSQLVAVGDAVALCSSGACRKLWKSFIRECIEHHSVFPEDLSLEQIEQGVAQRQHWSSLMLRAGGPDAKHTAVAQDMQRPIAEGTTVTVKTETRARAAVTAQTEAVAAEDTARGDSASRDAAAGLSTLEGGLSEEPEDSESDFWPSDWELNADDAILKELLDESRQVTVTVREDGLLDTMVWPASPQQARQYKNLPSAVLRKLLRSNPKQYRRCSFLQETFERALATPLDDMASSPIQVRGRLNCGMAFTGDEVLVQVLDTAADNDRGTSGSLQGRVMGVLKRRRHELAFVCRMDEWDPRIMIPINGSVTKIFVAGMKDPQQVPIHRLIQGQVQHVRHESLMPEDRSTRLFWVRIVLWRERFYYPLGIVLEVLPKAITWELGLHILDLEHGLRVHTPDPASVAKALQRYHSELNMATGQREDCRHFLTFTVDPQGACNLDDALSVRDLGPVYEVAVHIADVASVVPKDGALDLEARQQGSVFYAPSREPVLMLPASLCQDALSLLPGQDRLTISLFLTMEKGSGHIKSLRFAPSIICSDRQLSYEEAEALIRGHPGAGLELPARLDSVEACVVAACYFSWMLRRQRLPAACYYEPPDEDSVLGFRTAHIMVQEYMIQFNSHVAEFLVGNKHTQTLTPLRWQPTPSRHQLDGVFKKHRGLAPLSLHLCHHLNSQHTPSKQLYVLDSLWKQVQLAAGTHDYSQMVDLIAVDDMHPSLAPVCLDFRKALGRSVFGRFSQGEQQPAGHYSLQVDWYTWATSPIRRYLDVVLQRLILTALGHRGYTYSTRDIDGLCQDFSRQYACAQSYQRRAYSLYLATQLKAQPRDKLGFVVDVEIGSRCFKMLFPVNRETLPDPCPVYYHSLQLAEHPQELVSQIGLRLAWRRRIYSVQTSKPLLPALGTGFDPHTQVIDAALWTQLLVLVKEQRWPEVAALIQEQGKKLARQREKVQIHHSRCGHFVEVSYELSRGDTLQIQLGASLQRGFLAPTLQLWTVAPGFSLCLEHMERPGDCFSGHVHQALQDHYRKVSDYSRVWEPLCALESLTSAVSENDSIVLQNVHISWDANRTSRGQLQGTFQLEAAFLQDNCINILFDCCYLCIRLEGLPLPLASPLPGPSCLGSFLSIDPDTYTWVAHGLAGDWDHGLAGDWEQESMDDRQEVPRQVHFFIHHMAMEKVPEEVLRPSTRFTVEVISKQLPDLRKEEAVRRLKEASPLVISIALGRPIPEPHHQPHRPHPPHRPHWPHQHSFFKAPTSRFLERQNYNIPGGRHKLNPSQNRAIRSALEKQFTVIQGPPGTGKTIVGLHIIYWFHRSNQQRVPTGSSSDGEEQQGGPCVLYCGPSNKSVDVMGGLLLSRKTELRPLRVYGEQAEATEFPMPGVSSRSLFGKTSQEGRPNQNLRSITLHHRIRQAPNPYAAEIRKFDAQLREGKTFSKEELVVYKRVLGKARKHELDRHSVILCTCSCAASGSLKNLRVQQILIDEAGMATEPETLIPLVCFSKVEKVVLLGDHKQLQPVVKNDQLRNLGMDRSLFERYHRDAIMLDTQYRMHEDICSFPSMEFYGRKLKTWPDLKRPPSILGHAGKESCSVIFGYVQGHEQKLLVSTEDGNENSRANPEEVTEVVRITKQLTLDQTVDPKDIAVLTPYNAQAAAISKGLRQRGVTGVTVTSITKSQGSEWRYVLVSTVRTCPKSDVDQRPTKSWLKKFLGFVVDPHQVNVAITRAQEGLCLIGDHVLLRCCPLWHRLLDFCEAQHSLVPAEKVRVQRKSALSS
UniProt A0A3L7ISI1, entry or part of it: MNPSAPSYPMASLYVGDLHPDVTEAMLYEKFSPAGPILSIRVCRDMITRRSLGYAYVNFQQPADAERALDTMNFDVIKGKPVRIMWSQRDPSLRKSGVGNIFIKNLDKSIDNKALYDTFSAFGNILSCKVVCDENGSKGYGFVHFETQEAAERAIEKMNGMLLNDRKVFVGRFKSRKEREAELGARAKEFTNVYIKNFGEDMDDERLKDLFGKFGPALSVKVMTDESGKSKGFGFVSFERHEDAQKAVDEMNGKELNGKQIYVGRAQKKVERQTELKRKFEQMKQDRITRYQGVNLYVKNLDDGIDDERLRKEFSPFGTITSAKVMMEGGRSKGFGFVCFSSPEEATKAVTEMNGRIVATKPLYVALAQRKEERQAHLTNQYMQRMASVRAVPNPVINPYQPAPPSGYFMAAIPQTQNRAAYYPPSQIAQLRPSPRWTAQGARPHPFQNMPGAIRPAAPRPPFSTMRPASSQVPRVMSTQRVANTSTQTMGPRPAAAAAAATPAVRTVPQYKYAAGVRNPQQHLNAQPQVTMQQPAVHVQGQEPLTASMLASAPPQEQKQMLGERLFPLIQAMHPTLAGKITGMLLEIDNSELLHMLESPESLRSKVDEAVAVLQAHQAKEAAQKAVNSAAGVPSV

[3] = target: Basement membrane-specific heparin sulfate proteoglycan core protein (Cricetulus griseus (CHO)) (UniProt A0A9J7FD71)
[4] = target: T2, Matrix metalloprotease-19 (Cricetulus griseus (CHO)) (UniProt G3HRK9)
T2 sequence (looked up, limits assumed): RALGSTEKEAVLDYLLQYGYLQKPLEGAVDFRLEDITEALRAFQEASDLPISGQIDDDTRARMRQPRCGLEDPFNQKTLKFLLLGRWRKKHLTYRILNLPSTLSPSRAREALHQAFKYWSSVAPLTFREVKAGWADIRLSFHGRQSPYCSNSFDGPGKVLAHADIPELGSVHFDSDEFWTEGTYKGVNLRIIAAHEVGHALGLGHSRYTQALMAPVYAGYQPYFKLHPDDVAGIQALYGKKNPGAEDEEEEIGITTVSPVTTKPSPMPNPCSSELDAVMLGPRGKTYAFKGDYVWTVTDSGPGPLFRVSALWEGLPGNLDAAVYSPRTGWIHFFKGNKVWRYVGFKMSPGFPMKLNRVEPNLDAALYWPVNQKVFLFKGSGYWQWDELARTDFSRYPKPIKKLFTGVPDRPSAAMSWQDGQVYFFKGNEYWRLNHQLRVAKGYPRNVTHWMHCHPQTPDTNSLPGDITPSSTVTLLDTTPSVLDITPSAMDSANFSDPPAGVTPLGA

[5] = target: Matrix metalloprotease-9 (Cricetulus griseus (CHO)) (UniProt G3H8V1)
[6] = target: T3, Nuclease domain containing protein 1 (Cricetulus griseus (CHO)) (UniProt A0A9J7JA06)
T3 sequence (looked up, limits assumed): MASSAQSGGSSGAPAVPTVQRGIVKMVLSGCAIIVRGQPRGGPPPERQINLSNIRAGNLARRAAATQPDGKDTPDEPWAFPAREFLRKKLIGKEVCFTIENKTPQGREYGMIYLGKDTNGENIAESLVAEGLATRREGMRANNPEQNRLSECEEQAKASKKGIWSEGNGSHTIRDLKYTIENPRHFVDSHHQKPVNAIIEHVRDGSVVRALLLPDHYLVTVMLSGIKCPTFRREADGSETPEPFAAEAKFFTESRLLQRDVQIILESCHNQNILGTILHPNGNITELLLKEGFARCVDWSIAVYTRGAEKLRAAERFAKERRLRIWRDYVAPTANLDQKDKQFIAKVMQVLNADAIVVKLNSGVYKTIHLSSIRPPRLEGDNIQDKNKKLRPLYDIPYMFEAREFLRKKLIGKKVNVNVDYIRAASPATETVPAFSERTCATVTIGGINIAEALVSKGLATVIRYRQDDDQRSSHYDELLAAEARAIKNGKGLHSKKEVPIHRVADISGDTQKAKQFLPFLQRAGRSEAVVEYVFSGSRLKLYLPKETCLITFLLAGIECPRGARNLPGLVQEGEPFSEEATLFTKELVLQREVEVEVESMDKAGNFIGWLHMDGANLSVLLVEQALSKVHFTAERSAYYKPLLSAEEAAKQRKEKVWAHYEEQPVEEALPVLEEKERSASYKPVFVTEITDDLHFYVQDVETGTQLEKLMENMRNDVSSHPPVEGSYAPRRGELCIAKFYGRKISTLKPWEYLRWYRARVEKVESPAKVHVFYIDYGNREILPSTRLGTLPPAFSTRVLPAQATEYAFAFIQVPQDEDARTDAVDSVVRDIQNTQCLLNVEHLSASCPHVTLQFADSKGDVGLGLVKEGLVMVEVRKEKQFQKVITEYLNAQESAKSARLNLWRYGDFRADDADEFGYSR

[7] = target: Nucleolin (Cricetulus griseus (CHO)) (UniProt A0A8C2QPD9)
[8] = target: Peroxisomal proliferator-activated receptor A-interacting complex 285 kDa protein (Cricetulus griseus (CHO)) (UniProt A0A9J7G412)
[9] = target: Polyadenylate binding protein 1 (Cricetulus griseus (CHO)) (UniProt A0A3L7ISI1)
[10] = target: T4, Splicing factor 3B subunit (Cricetulus griseus (CHO)) (UniProt G3HAF4)
T4 sequence (looked up, limits assumed): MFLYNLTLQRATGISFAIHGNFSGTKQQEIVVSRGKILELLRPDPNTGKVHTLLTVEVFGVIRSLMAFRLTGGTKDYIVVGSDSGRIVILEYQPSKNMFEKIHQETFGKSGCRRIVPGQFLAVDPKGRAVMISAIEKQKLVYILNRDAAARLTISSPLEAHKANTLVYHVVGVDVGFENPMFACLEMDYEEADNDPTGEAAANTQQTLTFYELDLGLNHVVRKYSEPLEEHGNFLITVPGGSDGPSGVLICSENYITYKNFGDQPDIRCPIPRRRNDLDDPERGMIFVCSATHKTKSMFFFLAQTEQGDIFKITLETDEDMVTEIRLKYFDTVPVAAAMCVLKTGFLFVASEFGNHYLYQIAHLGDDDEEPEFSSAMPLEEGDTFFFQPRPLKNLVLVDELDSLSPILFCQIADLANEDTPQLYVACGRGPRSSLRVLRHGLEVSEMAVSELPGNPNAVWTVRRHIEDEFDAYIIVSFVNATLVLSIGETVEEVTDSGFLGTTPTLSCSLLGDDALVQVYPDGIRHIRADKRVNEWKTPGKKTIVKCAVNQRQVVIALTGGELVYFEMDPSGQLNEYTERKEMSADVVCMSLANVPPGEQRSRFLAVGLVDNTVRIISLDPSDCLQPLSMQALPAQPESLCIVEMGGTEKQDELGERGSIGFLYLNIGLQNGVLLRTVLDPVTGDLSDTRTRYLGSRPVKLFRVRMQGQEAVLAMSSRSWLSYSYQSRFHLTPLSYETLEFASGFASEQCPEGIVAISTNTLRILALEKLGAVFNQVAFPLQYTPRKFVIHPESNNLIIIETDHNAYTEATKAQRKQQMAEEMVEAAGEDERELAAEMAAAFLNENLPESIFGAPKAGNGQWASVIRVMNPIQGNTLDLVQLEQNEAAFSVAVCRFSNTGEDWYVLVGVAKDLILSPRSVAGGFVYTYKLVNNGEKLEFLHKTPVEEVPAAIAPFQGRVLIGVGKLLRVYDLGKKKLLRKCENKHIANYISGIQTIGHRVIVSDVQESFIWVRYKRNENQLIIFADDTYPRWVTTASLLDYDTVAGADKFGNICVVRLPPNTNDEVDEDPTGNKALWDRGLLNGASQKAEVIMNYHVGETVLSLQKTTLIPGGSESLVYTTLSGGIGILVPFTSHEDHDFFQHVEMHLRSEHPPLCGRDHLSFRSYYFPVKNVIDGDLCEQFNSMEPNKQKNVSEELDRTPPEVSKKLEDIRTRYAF

Measured: binding result

CCGGACGATACAATCCATCTGTTACTGTGGATTCGTTAAGCTTAGTCGGT [R5-31]
binds: [1] | [2]

GTTCATTCCGCCTTCTTTGGTCTAGGTCCGGACCAATTGTTATTTCGTTC [R5-150]
binds: [3] | [4] | [5] | [6] | [7] | [8] | [9] | [10]
